Laboratory results reported in PubChem BioAssay AID256 (DTP/NCI, 2004).
The list shows only some results of the screen, not a fair sample: it gathers tests that were run many times, whatever their T/C, doses with no T/C, and many T/C values between a quarter and a half above the control. Further doses and runs are listed elsewhere. T/C: endpoint of the treated group in % of that of the vehicle group. Some doses have a count of surviving animals in place of a T/C: the source holds a T/C of zero for them, seemingly a mark for toxic or unscored doses. Some survivor counts are full or nearly so, which does not show that the dose was tolerated: the source hardly ever lists a survival T/C far under the control, and the zero likely stands for such cases as well. Survivors were counted at the toxicity check, usually on the fifth day, unless a day is given; later deaths do not show. Schedules are NCI's codes, taken here to give the interval after Q, in days (D) or hours (H), and the number of doses after X. Some doses were run more than once; the values are given in rising order. For survival time, this PubChem deposit counts one and a half times the control or more as active, and values a quarter to a half above the control carry no call in these data; other NCI protocols may use other cut-offs. Some T/C values are followed by the survivors on the day toxicity was checked, most often the fifth; where none is given, no animal had died by that day. Counts like (3×) stand for listed records that agree.

Test system: CD2F1 mice, L1210 leukemia ip, survival T/C
Assay: NCI In Vivo Anticancer Drug Screen. Data for tumor model L1210 Leukemia (intraperitoneal) in CD2F1 (CDF1) mice
Conditions: higher T/C = longer survival
In short: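 Ratio T/C, where T is the treated-group value and C the vehicle-dosed control value, from mice implanted with a transplantable tumor.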

[1] = T/C endpoint: mean survival time, dose: 100.0 mg/kg/injection, schedule: Q01DX009 (ip), vehicle: saline with Tween-80
[2] = T/C endpoint: mean survival time, dose: 200.0 mg/kg/injection, schedule: Q01DX009 (ip), vehicle: saline with Tween-80
[3] = T/C endpoint: mean survival time, dose: 400.0 mg/kg/injection, schedule: Q01DX009 (ip), vehicle: saline with Tween-80
[4] = T/C endpoint: mean survival time, dose: 25.0 mg/kg/injection, schedule: Q01DX009 (ip), vehicle: saline with Tween-80
[5] = T/C endpoint: mean survival time, dose: 50.0 mg/kg/injection, schedule: Q01DX009 (ip), vehicle: saline with Tween-80
[6] = T/C endpoint: mean survival time, dose: 200.0 mg/kg/injection, schedule: Q01DX009 (ip), vehicle: saline
[7] = T/C endpoint: mean survival time, dose: 10.0 mg/kg/injection, schedule: Q04DX003 (ip), vehicle: saline
[8] = T/C endpoint: mean survival time, dose: 400.0 mg/kg/injection, schedule: Q01DX009 (ip), vehicle: saline
[9] = T/C endpoint: mean survival time, dose: 200.0 mg/kg/injection, schedule: Q01DX001 (ip), vehicle: saline with Tween-80
[10] = T/C endpoint: mean survival time, dose: 400.0 mg/kg/injection, schedule: Q01DX001 (ip), vehicle: saline with Tween-80
[11] = T/C endpoint: mean survival time, dose: 200.0 mg/kg/injection, schedule: Q04DX002 (ip), vehicle: saline with Tween-80
[12] = T/C endpoint: mean survival time, dose: 100.0 mg/kg/injection, schedule: Q01DX009 (ip), vehicle: Klucel (hydroxypropylcellulose) (HPC)

SMILES: CC(C)NCC(O)COc1ccc(O)c(O)c1 (centres undefined)
- survivor count (T/C endpoint: median survival time, dose: 200.0 mg/kg/injection, schedule: Q01DX009 (ip), vehicle: saline): 0 of 6
- survivor count (T/C endpoint: median survival time, dose: 400.0 mg/kg/injection, schedule: Q01DX009 (ip), vehicle: saline): 0 of 6

SMILES: COC(=O)c1ccc(N=NN(C)COC(C)=O)cc1
- T/C (T/C endpoint: median survival time, dose: 120.0 mg/kg/injection, schedule: Q01DX005 (ip), vehicle: Klucel (hydroxypropylcellulose) (HPC)): 137 % of control

SMILES: Nc1ccc2cc3ccccc3cc2c1
- survivor count [1]: 6 of 6
- survivor count [2]: 4 of 6
- survivor count [3]: 1 of 6

SMILES: CCOc1ccc(NC(=S)NC(=O)/C=C/c2ccccc2)cc1
- T/C [4]: 93, 102, 103, 107 % of control
- T/C [5]: 93, 96, 96 [5 of 6 alive], 97 (2×), 98 % of control
- T/C [1]: 101, 104, 105, 108, 109 [5 of 6 alive], 110 % of control
- T/C [2]: 86, 94, 97 [5 of 6 alive], 106 % of control

SMILES: c1ccc2[nH]c(CN(CCN(Cc3nc4ccccc4[nH]3)Cc3nc4ccccc4[nH]3)Cc3nc4ccccc4[nH]3)nc2c1
- survivor count (T/C endpoint: median survival time, dose: 12.5 mg/kg/injection, schedule: Q01DX005 (ip), vehicle: DMSO): 4 of 6
- survivor count (T/C endpoint: median survival time, dose: 25.0 mg/kg/injection, schedule: Q01DX005 (ip), vehicle: DMSO): 1 of 6
- survivor count (T/C endpoint: median survival time, dose: 50.0 mg/kg/injection, schedule: Q01DX005 (ip), vehicle: DMSO): 0 of 6

SMILES: NC1=NCN(C2OC(COC(=O)c3ccccc3)C(OC(=O)c3ccccc3)C2OC(=O)c2ccccc2)C(=O)N1 (centres undefined)
- T/C [6]: 135 % of control

SMILES: NC(=O)OCCc1ccccc1
- survivor count (T/C endpoint: mean survival time, dose: 400.0 mg/kg/injection, schedule: Q04DX003 (ip), vehicle: Klucel (hydroxypropylcellulose) (HPC)): 3 of 3

SMILES: CCC[CH2][Sn]([Cl])([CH2]Cl)[CH2]CCC
- survivor count [7]: 6 of 6

SMILES: CC(=O)Oc1c(C)[nH]ccc1=O
- T/C [2]: 131 % of control
- T/C [3]: 125 % of control [5 of 6 alive]
- T/C [8]: 142 % of control
- survivor count (T/C endpoint: mean survival time, dose: 800.0 mg/kg/injection, schedule: Q01DX009 (ip), vehicle: saline with Tween-80): 0 of 6 and 1 of 6
- T/C (T/C endpoint: mean survival time, dose: 800.0 mg/kg/injection, schedule: Q01DX009 (ip), vehicle: saline): 138 % of control

SMILES: O=C1N=C(Oc2ccccc2)SC1=O
- survivor count [2]: 2 of 6
- survivor count [3]: 0 of 6

SMILES: c1ccc(-c2nn(-c3ccccc3)[n+](-c3ccccc3)n2)cc1
- survivor count [7]: 2 of 6
- survivor count (T/C endpoint: mean survival time, dose: 20.0 mg/kg/injection, schedule: Q04DX003 (ip), vehicle: saline): 0 of 6

SMILES: Nc1cc(C(=O)Nc2ccc(C3=NCCN3)cc2)cc(C(=O)Nc2ccc(C3=NCCN3)cc2)c1
- T/C (T/C endpoint: mean survival time, dose: 15.6 mg/kg/injection, schedule: Q01DX010 (oral), vehicle: saline): 133 % of control
- T/C (T/C endpoint: mean survival time, dose: 62.5 mg/kg/injection, schedule: Q01DX010 (oral), vehicle: saline): 130 % of control
- T/C (T/C endpoint: mean survival time, dose: 125.0 mg/kg/injection, schedule: Q01DX010 (oral), vehicle: saline): 127 % of control

SMILES: CCCCOC(=O)c1ccccc1C(=O)O.[Cu+2]
- survivor count (T/C endpoint: mean survival time, dose: 100.0 mg/kg/injection, schedule: Q01DX001 (ip), vehicle: saline with Tween-80): 0 of 3
- survivor count [9]: 0 of 3
- survivor count [10]: 0 of 3

SMILES: COC(=O)Nc1nc2ccc(C3(c4ccc(F)cc4)OCCO3)cc2[nH]1
- T/C (T/C endpoint: mean survival time, dose: 12.5 mg/kg/injection, schedule: Q01DX009 (ip), vehicle: saline): 125 % of control
- T/C (T/C endpoint: mean survival time, dose: 25.0 mg/kg/injection, schedule: Q01DX009 (ip), vehicle: saline): 126 and 135 % of control
- T/C [5]: 147 % of control
- T/C (T/C endpoint: mean survival time, dose: 70.0 mg/kg/injection, schedule: Q04DX003 (ip), vehicle: saline): 141 % of control [4 of 6 alive]
- T/C (T/C endpoint: mean survival time, dose: 80.0 mg/kg/injection, schedule: Q04DX003 (ip), vehicle: saline): 132 % of control [5 of 6 alive]
- T/C [1]: 141 % of control
- survivor count (T/C endpoint: mean survival time, dose: 100.0 mg/kg/injection, schedule: Q01DX009 (ip), vehicle: saline): 6 of 6
- T/C (T/C endpoint: mean survival time, dose: 100.0 mg/kg/injection, schedule: Q01DX009 (oral), vehicle: saline): 132 % of control
- survivor count [6]: 0 of 6 and 2 of 6
- survivor count [3]: 4 of 10
- survivor count [8]: 0 of 6

SMILES: O=c1cn[nH]c2c(Cl)cccc12
- survivor count (T/C endpoint: mean survival time, dose: 400.0 mg/kg/injection, schedule: Q01DX001 (ip), vehicle: carboxymethylcellulose (CMC)): 1 of 6

SMILES: COc1ccc2nc3cc(Cl)ccc3c(NCCC[N+](C)(C)CCCCCCCCCC[N+](C)(C)CCCNc3c4ccc(Cl)cc4nc4ccc(OC)cc34)c2c1
- survivor count (T/C endpoint: mean survival time, dose: 12.5 mg/kg/injection, schedule: Q01DX009 (ip), vehicle: saline with Tween-80): 0 of 6
- survivor count [4]: 0 of 6

SMILES: O=N[O-].O=N[O-].O=N[O-].O=N[O-].O=N[O-].O=N[O-].[Co+3].[Co].[NH2-].[NH2-].[NH2-].[NH2-].[NH2-].[NH2-]
- survivor count (T/C endpoint: mean survival time, dose: 100.0 mg/kg/injection, schedule: Q04DX002 (ip), vehicle: saline with Tween-80): 1 of 3
- survivor count [11]: 0 of 3
- survivor count (T/C endpoint: mean survival time, dose: 400.0 mg/kg/injection, schedule: Q04DX002 (ip), vehicle: saline with Tween-80): 0 of 3

SMILES: COc1ccc(C(C(N)=O)N2CCCC2)cc1 (centres undefined)
- survivor count [3]: 4 of 6

SMILES: NC1CCCCC1N.O=C1C=C/C(=C(/c2ccc(O)c(Br)c2)c2ccccc2S(=O)(=O)[O-])C=C1Br.O=C1C=C/C(=C(/c2ccc(O)c(Br)c2)c2ccccc2S(=O)(=O)[O-])C=C1Br.[Pt+4]
- survivor count (T/C endpoint: median survival time, dose: 50.0 mg/kg/injection, schedule: Q04DX003 (ip), vehicle: saline): 3 of 6
- survivor count (T/C endpoint: median survival time, dose: 100.0 mg/kg/injection, schedule: Q04DX003 (ip), vehicle: saline): 3 of 6
- survivor count (T/C endpoint: median survival time, dose: 200.0 mg/kg/injection, schedule: Q04DX003 (ip), vehicle: saline): 0 of 6

SMILES: NN(C(=O)c1ccccc1)C1CCCCC1
- survivor count [2]: 5 of 6
- survivor count [3]: 0 of 6

SMILES: Nc1cc(Cl)c(O)c(Cl)c1
- survivor count [9]: 1 of 6
- survivor count [10]: 0 of 6

SMILES: O=C(CNC(=O)NCc1ccco1)N/N=C/c1cc(Br)ccc1O
- survivor count [5]: 3 of 3
- survivor count [1]: 3 of 3

SMILES: CCN(CC)c1ccc2cc(-c3nc4ccccc4n3C)c(=O)oc2c1
- T/C (T/C endpoint: mean survival time, dose: 25.0 mg/kg/injection, schedule: Q01DX009 (ip), vehicle: Klucel (hydroxypropylcellulose) (HPC), evaluated on day 30): 93, 102, 103 % of control
- T/C (T/C endpoint: mean survival time, dose: 25.0 mg/kg/injection, schedule: Q01DX009 (ip), vehicle: Klucel (hydroxypropylcellulose) (HPC), evaluated on day 60): 94 % of control
- T/C [12]: 125 % of control [9 of 10 alive]
- survivor count [12]: 0 of 6 and 3 of 6
- survivor count (T/C endpoint: mean survival time, dose: 200.0 mg/kg/injection, schedule: Q01DX009 (ip), vehicle: Klucel (hydroxypropylcellulose) (HPC)): 0 of 10, 0 of 6, 1 of 6

SMILES: Cc1c(C=[N+]2CCCCC2)c2ccccc2n1C
- T/C [11]: 137 % of control

SMILES: Nc1nc(=S)nc(N)[nH]1
- survivor count (T/C endpoint: mean survival time, dose: 50.0 mg/kg/injection, schedule: Q04DX003 (ip), vehicle: saline with Tween-80): 3 of 6
- survivor count (T/C endpoint: mean survival time, dose: 100.0 mg/kg/injection, schedule: Q04DX003 (ip), vehicle: saline with Tween-80): 0 of 6
- survivor count (T/C endpoint: mean survival time, dose: 200.0 mg/kg/injection, schedule: Q04DX003 (ip), vehicle: saline with Tween-80): 0 of 6

SMILES: S=c1cc[nH]c2ccccc12
- survivor count (T/C endpoint: mean survival time, dose: 100.0 mg/kg/injection, schedule: Q01DX009 (ip), vehicle: other): 1 of 6
- survivor count (T/C endpoint: mean survival time, dose: 200.0 mg/kg/injection, schedule: Q01DX009 (ip), vehicle: other): 0 of 6
